# Source: PubChem BioAssay AID588497 (NMMLSC, 2011)
# In all, about 360,000 compounds went through this assay and about 780 (0.22%) were called active. Inconclusive means that the source gave no clear call. Such entries were picked first, then a sample of the others. No stated cut-off is given here; in the data, active means inhibition above about 35% (passing the limit was not always enough); inconclusive means no clear call, values can overlap the other calls.
# Tested on: Botulinum neurotoxin type F light chain protease (Clostridium botulinum)
# Experiment: BoNT/F light chain protease inhibitors, primary screen, biochemical, flow cytometry, MLPCN library (AID 588497); further: plate controls were buffer without enzyme for full effect and enzyme alone for no effect
# Conditions: Multiplex microsphere protease cleavage assay, at 10 µM, active compounds read high
row,SMILES,inhibition
1,COCCNC(=O)c1nn2c(C(F)(F)F)cc(-c3ccccc3)nc2c1Cl,inconclusive: 7.4%
2,COc1ccc(C(=O)Cc2cc3ccccc3oc2=O)cc1,inactive: 1.8%
3,COc1ccc(CN2CCSCC2)c(OC)c1C,inconclusive: 27.9%
4,COc1ccc(-n2nnnc2-c2cn(C)nc2C(F)(F)F)cc1,inconclusive: -20%
5,Cc1ccc(N2C(=O)c3ccccc3C(C)(C)C2=O)cc1,inconclusive: -28.4%
6,CC1CCN(S(=O)(=O)c2cc3c4c(c2)CCN4C(=O)CC3)CC1,inactive: 11.4%
7,COc1cc(/C=C2\SC(N)=NC2=O)cc(Cl)c1O,inactive: 22.8%
8,Cn1cnnc1SCC(=O)c1ccc(O)c(O)c1,inactive: 5.5%
9,COc1ccc(CNCCNC(=O)c2cccs2)c(OC)c1OC,inactive: 3.8%
10,COc1ccc(/C=C/C(=O)NCCCN2CCCCCC2)cc1,inconclusive: -33.2%
11,COc1ccc(C(=O)Oc2ccc3ccc(=O)oc3c2)cc1OC,inactive: -13.3%
12,CCOC(=O)C1CCN(C(=O)c2sc3ncnc(N4CCC(C)CC4)c3c2C)CC1,inactive: 1.9%
13,O=C(NCCN1CCCCC1)c1ccc(Oc2cc(Cl)cc(Cl)c2)o1,inconclusive: 21.7%
14,CCc1cccc(C)c1NC(=O)COC(=O)Cn1c(C)csc1=O,inconclusive: 4.6%
15,O=C(NCC1CCCN1S(=O)(=O)c1cccs1)C(=O)Nc1ccc(F)cc1F (centres undefined),inconclusive: 12.7%
16,O=C(NCCCN1CCC(Cc2ccccc2)CC1)C1CCN(S(=O)(=O)N2CCC3(CC2)OCCO3)CC1,inactive: -0.9%
17,CC(=O)O[C@]1(C(C)=O)CC[C@H]2[C@@H]3C=CC4=CC(=O)C=C[C@]4(C)[C@H]3CC[C@@]21C,inactive: 2.3%
18,CCOC(=O)c1c(S(=O)(=O)Nc2ccc(C)c(F)c2)c(C)n(C)c1C,inactive: -3.2%
19,O=C(NCc1csc(-c2cccs2)n1)C1CCCCC1,inconclusive: 14.5%
20,Cc1ccccc1OCC(=O)Nc1nnc(C2CCCCC2)s1,active: 47%
21,CCOP(=O)(OCC)c1nc(/C=C/c2ccccc2)oc1NCc1ccc(OC)cc1,inactive: -7.3%
22,CN(C)CCN(CC1CCCN(Cc2ccccc2F)C1)C(=O)Cc1ccc(F)c(F)c1 (centres undefined),inconclusive: 4.4%
23,COc1ccc2nnc(-c3ccc(C(F)(F)F)cc3)n2n1,inconclusive: -51%
24,COC(=O)CSc1nc(N2CCOCC2)c2c(c1C#N)CCCC2,inconclusive: 45.2%

# Three compounds out of the list, ordered by number of heavy atoms, rising.
row,SMILES,inhibition
23,COc1ccc2nnc(-c3ccc(C(F)(F)F)cc3)n2n1,inconclusive: -51%
13,O=C(NCCN1CCCCC1)c1ccc(Oc2cc(Cl)cc(Cl)c2)o1,inconclusive: 21.7%
17,CC(=O)O[C@]1(C(C)=O)CC[C@H]2[C@@H]3C=CC4=CC(=O)C=C[C@]4(C)[C@H]3CC[C@@]21C,inactive: 2.3%

# Further results follow:

row,SMILES,inhibition
1,CCOc1cc(-c2noc(CCCC(N)=O)n2)cc(Br)c1OC,inactive: -1.4%
2,COC(=O)c1ccc(S(=O)(=O)NCCc2ccccc2OC)n1C,inconclusive: 130%
3,O=C(Nc1cc(S(=O)(=O)N2CCOCC2)ccc1N1CCOCC1)c1cccs1,inconclusive: -7.8%
4,COc1ccc(C2NC(=O)CCC2[N+](=O)[O-])c(OC)c1OC (centres undefined),inconclusive: -10.5%
5,CC(=O)c1nn(-c2cccc(Br)c2)cc1C(=O)c1ccc(C)cc1,inconclusive: -5.5%
6,COc1ccc(/C=C/C(=O)C2(O)CCCCC2)cc1,inconclusive: -17%
7,COc1ccccc1C(=O)NNC(=O)c1ccccc1Br,inconclusive: 6%
8,CCN(CC)C1=CC2=CC(=C(C#N)C#N)CCC2CC1 (centres undefined),active: 61.8%
9,COc1cccc(C2=NOC(C(=O)N3CCOCC3)C2)c1 (centres undefined),inactive: 1%
10,Oc1ccc(Nc2ccnc3cc(Cl)ccc23)cc1,inconclusive: 4.6%
11,O=C(CSc1ccccc1)N1CCN(c2ccccn2)CC1,inactive: -3.3%
12,COCCn1c(SCC(=O)Nc2cc(C)on2)nc2ccccc2c1=O,inconclusive: 5.8%
13,Nc1ccc(C2(c3ccc(N)cc3)OC(=O)c3ccccc32)cc1,inconclusive: -74.7%
14,CC(=O)c1c(C)n(-c2ccc(Cl)cc2)c2ccc(O)cc12,inconclusive: -0.6%
15,CCOC(=O)C1CCN(CCC(=O)Nc2ccc(Br)c(C)c2)CC1,inconclusive: 9.2%
16,CC(C(=O)Nc1ccc(Br)cc1C(=O)c1ccccc1)N1CCCCC1 (centres undefined),inactive: 8.3%
17,C/C(=N\NC(=O)CCn1nnc2ccccc21)c1cccs1,inconclusive: -3.6%
18,Cc1nc(C)c(C(=O)Nc2cccc(C)c2C)s1,inconclusive: 24.8%
19,CCN(CC)CCN1C(=O)C(=O)/C(=C(/O)c2ccc(OC(C)C)cc2)C1c1cccs1 (centres undefined),inconclusive: -11.6%
20,Cc1ccsc1CNCCc1ccccc1F,inconclusive: 4.8%
21,COc1ccc2nc(C)cc(Nc3ccc(C)cc3)c2c1,inconclusive: 17.3%
22,Cc1ccc2oc(C(=O)N3CCN(CC(=O)NC(C)C)CC3)c(C)c2c1,inconclusive: -14.6%
23,COc1cc(OC)cc(C(=O)Nc2ccc(Nc3ccccc3)cc2)c1,inconclusive: -48.3%
24,CC(=O)Nc1ccc(NC(=O)C(C)Sc2nc3nc(C)cc(C)n3n2)cc1 (centres undefined),inconclusive: -2.1%

# A few values from the results shown:
# COc1ccc(CN2CCSCC2)c(OC)c1C | inhibition: inconclusive: 27.9%
# COc1cc(/C=C2\SC(N)=NC2=O)cc(Cl)c1O | inhibition: inactive: 22.8%
# COc1cc(OC)cc(C(=O)Nc2ccc(Nc3ccccc3)cc2)c1 | inhibition: inconclusive: -48.3%
# CCOC(=O)C1CCN(CCC(=O)Nc2ccc(Br)c(C)c2)CC1 | inhibition: inconclusive: 9.2%
# Cc1ccsc1CNCCc1ccccc1F | inhibition: inconclusive: 4.8%
# CCc1cccc(C)c1NC(=O)COC(=O)Cn1c(C)csc1=O | inhibition: inconclusive: 4.6%

# Further results follow:

row,SMILES,inhibition
1,COc1cc(-c2n[nH]c(=S)n2/N=C/c2cccn2C)cc(OC)c1OC,inconclusive: 15.2%
2,COc1ccccc1N1CCN(C(=O)c2cccc(C(=O)N3CCN(c4ccccc4OC)CC3)c2)CC1,inconclusive: -19.6%
3,Cc1ccc(Cn2ncc3c(N4CCN(c5ccc(C)cc5)CC4)ncnc32)cc1,inconclusive: 4.5%
4,O=C1CN=C(c2ccccc2)c2cc(Br)ccc2N1,inconclusive: 31.8%
5,OC(COc1ccccc1)Cn1c2ccccc2c2ccccc21 (centres undefined),inactive: -3.6%
6,COc1ccc(N2C(=O)c3ccccc3NC2c2ccc(OC)c(CSc3ccccn3)c2)cc1 (centres undefined),inactive: -2.9%
7,Cc1ccc2nc(N/N=C/c3ccccc3C#N)nc(-c3ccccc3)c2c1,inactive: -5.4%
8,Cc1cccc(-n2c(N)cc(=O)[nH]c2=S)c1C,inconclusive: -33.2%
9,COc1cc(Cn2nnc3ccccc32)ccc1O,inconclusive: -4.4%
10,CCOc1ccc(OCC)c(S(=O)(=O)n2cnc(C)c2)c1,inconclusive: 22.7%
11,COc1ccc(Br)cc1C(C[N+](=O)[O-])c1c(N)n(C)c(=O)n(C)c1=O (centres undefined),inconclusive: 3.4%
12,O=C(Nc1cccnc1)c1ccc2ccccc2c1O,inconclusive: 19.8%
13,CCOC(=O)c1ccccc1NC(=O)C1=COCCO1,inconclusive: -4.2%
14,CC(C)=C1C2CC2C2C(C(=O)O)C12 (centres undefined),inconclusive: 3.5%
15,CCCOc1ccc(-c2c(C(=O)N/N=C(\C)c3cccs3)nnn2-c2nonc2N)cc1,inactive: 0.4%
16,CCc1ccc(NC(=S)N(CCOC)C2CCN(C(C)=O)CC2)cc1,active: 39.9%
17,CC(=O)c1cccc(NC(=O)c2ccccc2N(Cc2ccccc2)S(C)(=O)=O)c1,inconclusive: 10.3%
18,Cc1cc(NC(=O)c2cc(C(C)(C)C)oc2C)no1,inconclusive: -59.3%
19,Cc1cccc(OCc2nnc(SCC(=O)N(C(C)C)C(C)C)n2Cc2ccco2)c1C,inactive: 2.8%
20,CCOc1cc(C=O)ccc1O,inactive: 0%
21,Cc1cc(O)c(C(=O)/C=C/c2c(F)c(F)c(F)c(F)c2F)c(=O)o1,active: 39.9%
22,C=CCn1c(O)c(N=O)c2ccccc21,inactive: -2.3%
23,Cc1onc(-c2c(Cl)cccc2Cl)c1COC(=O)c1ccc([N+](=O)[O-])cc1,inconclusive: 18.8%
24,Nc1ccccc1SCC(=O)Nc1ccc(N2CCOCC2)cc1,inconclusive: -0.4%

row,SMILES,inhibition
1,Cc1occc1-c1nnc(SCC(=O)Nc2c(F)cccc2F)n1C,inconclusive: -1.5%
2,CC(C)(C#CC(O)(c1ccccc1)c1ccccc1)N1CCCCC1,inconclusive: 10.5%
3,COc1ccc(C=CC(O)CCN2CCC3CCC(C3)C2)cc1 (centres undefined),inactive: -1.6%
4,O=c1oc(-c2cccc(C(F)(F)F)c2)nn1-c1ccc(C(F)(F)F)cn1,inconclusive: -69.4%
5,CCn1c2ccccc2c2cc(/C=N/n3c(-c4cc(C)[nH]n4)n[nH]c3=S)ccc21,inconclusive: 7%
6,c1ccc(CC2CCCCN2)cc1 (centres undefined),inconclusive: -9.4%
7,CCc1ccc2c(c1)C1(NN=C(c3ccc(C)cc3)S1)C(=O)N2 (centres undefined),inactive: -9.3%
8,CCOc1ccc(NC(=O)c2ccccc2NS(=O)(=O)c2ccc(F)cc2)c([N+](=O)[O-])c1,inactive: 16.8%
9,CCOCc1cc(C)[nH]c(=O)c1C#N,inconclusive: -17.3%
10,CC(C)Cn1cnc2c1c(=O)n(CC(=O)NN)c(=O)n2Cc1ccccc1,inconclusive: -14.5%
11,O=C(Nc1cccc(F)c1)c1c(O)c2ccccc2[nH]c1=O,inconclusive: 6.9%
12,C/C(Cc1ccccc1)=N\NC(=O)CNC(=O)c1cccc(Cl)c1,inconclusive: -13.9%
13,COc1cc(C(=O)NNC(=S)NC(=O)/C=C/c2ccccc2)cc(OC)c1OC,inconclusive: -2.3%
14,Cc1cc(-c2onc(C)c2C(N)=O)no1,inconclusive: 57.1%
15,CCN(C[C@H]1N[C@@](CC)(C(=O)OC)[C@H]2C(=O)N(C)C(=O)[C@@H]12)C(=O)Nc1ccc(C)cc1,inactive: -1.6%
16,CC1CCc2c(nc3ncnn3c2Nc2ccc(OC(F)(F)F)cc2)C1 (centres undefined),inconclusive: -42.4%
17,O=C(CSc1ccc(Cl)cc1)NNC(=O)c1cccnc1,inactive: -7.3%
18,CSC1=NCCN1C(=O)c1cccc(Br)c1,inconclusive: -12%
19,CC1CC(C)(C)NC(=S)N1CCC(=O)N1CCc2ccccc2C1 (centres undefined),inactive: -3.8%
20,COc1cc(CN2CCN(Cc3c[nH]c4ccccc34)CC2CCO)cc(OC)c1 (centres undefined),inconclusive: -17%
21,COc1ccc(-c2n[nH]c(C(F)(F)F)c2-c2cc3ccccc3o2)c(O)c1,inactive: -15.8%
22,Cc1cc(=O)oc2cc(NS(=O)(=O)c3ccccc3)ccc12,inconclusive: 9.6%
